Consider 109 sequences from the supplement of paper PMC3334620.

The full ranking holds about 33,000 sequences; the median of “E-score (-0.5 to 0.5)” is about -0.0059, and the highest 2% start at about 0.26. This is one part of the list.

The target of the assay is T1, Cin5 (UniProt P40917).
T1 sequence: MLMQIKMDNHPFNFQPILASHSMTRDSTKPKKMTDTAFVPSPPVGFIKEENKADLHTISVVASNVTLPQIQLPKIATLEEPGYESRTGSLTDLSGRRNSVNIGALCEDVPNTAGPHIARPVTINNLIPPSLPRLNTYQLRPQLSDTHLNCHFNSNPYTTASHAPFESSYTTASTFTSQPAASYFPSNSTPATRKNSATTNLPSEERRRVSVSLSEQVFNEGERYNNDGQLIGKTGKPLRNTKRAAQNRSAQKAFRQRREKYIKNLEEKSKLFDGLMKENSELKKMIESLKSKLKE
The assay can be described thus: PBM E-score (8-mer binding enrichment) (E-score (-0.5 to 0.5)); higher = stronger / more preferred TF binding. Particulars: protein concentration: 100 nM; construct: GST-full length. Put shortly:
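GST-tagged yeast TFs (full-length or DNA-binding domain) were made by PURExpress in vitro transcription/translation and applied at about 100-200 nM to universal all-10-mer Agilent arrays. The arrays were made double-stranded by primer extension, on fresh or once-stripped slides. Bound protein was detected with fluorescent anti-GST, and scans were normalised with masliner. Each ungapped eight-base word, pooled with its reverse complement, received an E-score (modified Wilcoxon-Mann-Whitney statistic) from the Universal PBM Analysis Suite.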
In the case of ATATGCAG, the “PBM E-score” value was -0.0746. To CCTCAAAG belongs -0.241.

For the sequence AGCAGTGA, the “PBM E-score” value was found to be 0.2.

For AGGGTCGA, the “PBM E-score” value was -0.084. AACTGTCT: the “PBM E-score” value is 0.0125.

In the case of CCGTTTAG, the “PBM E-score” value was -0.0924. As for ATGGTGGA, the figure is -0.0343; as for ACCTCAGT, 0.081; as for AGTGAGTC, -0.0677. AAGCGTTA: the “PBM E-score” value was found to be 0.00153. As for ATTTAGAG, the figure is 0.0567.

For the sequence GCCCTTCC, the “PBM E-score” value is -0.388. To CAATTTGC belongs 0.109. To GACGCCAC belongs -0.202; to ATCGGACC, -0.0615; to CCCCCAAC, -0.382.

With GTAGCAGA, the “PBM E-score” value was 0.0836. As to ACCCCGCG, the “PBM E-score” value was -0.0435. As for TAGAACCA, the figure is -0.0523; as for AAGGAAGC, -0.145; as for GCAAGATA, 0.117. As for CCTGTGGA, the figure is -0.239; as for GTGCTGGA, -0.175.

As for GAGGTTTA, the “PBM E-score” value stood at 0.00517. As for GTAATAAC, the figure is 0.0911. With CTAGATGA, the “PBM E-score” value stood at 0.00071.

On to CAGGCACA, for which the “PBM E-score” value was -0.284. As for AGAGGTGC, the figure is -0.109; as for ACGCTAAC, 0.0232.

On to GCGACCGC, for which the “PBM E-score” value is -0.142. As for ATGCCGGC, the “PBM E-score” value was -0.0207. CTGCTCAC: the “PBM E-score” value was -0.199. CTGTCAAC: the “PBM E-score” value is -0.00778. As for GAACTGTA, the figure is 0.155; as for GGCATCAA, -0.216. For the sequence CAAATAGG, the “PBM E-score” value is -0.0717. As for CCATCACG, the figure is -0.0302.

As to ACACGACC, the “PBM E-score” value was -0.109. To GTAGTGCA belongs 0.126; to AGACTTGG, -0.221.

For CCGGCCTC, the “PBM E-score” value is -0.227. CATCTCGA: the “PBM E-score” value was found to be 0.104. As for GCCGGTAA, the figure is 0.112; as for ATAGTTCC, 0.19; as for AACTAACT, 0.0131. As for CAAATTCG, the “PBM E-score” value is 0.153. On to GCAGAACC, for which the “PBM E-score” value is -0.0607. To TCAAAAGA belongs 0.07. To ACCTGCGA belongs -0.141.

As for AATTTGTA, the “PBM E-score” value stood at 0.247. On to TAGCTCGA, for which the “PBM E-score” value is 0.0043. CCTTCTGC: the “PBM E-score” value is -0.126.

ACCAACGC: the “PBM E-score” value was -0.0288. To AATTCGCG belongs 0.0954; to AGGATAAA, 0.177. To AGGAAACA belongs 0.0393; to ATTGTTAG, 0.109. For GTATTCTA, the “PBM E-score” value turned out to be 0.194.

In the case of CTGATGGC, the “PBM E-score” value was -0.0283. As for AATCAGCA, the figure is 0.176; as for ACAACATA, 0.268. For the sequence GACGACCA, the “PBM E-score” value was -0.107.

For the sequence AACGCTCA, the “PBM E-score” value is -0.116.

For CCACTTAG, the “PBM E-score” value was -0.0416.

With CCTGCCCC, the “PBM E-score” value is -0.239. With CTATTATC, the “PBM E-score” value is 0.108. To CTCTAAGA belongs -0.0756; to GACTCAAA, -0.171. On to CAATCTGC, for which the “PBM E-score” value was -0.0434. As to GATGAGTA, the “PBM E-score” value stood at 0.152. Turning to CAGCGTCC, the “PBM E-score” value was -0.13. As for CAAACACC, the figure is -0.122; as for ATTCCGGC, 0.0228. For the sequence GTGGCTGA, the “PBM E-score” value came out at 0.0341. Turning to GTAGGGAA, the “PBM E-score” value was 0.00147. Regarding GTCTTACA, the “PBM E-score” value was -0.0251.

Regarding ACAGCTTC, the “PBM E-score” value is -0.053. To CAAAACCA belongs 0.25; to GAATCTTA, 0.18; to ATAAGTGC, -0.0573. Turning to AAAACCTG, the “PBM E-score” value was -0.101. As for GATTCACA, the figure is 0.0537; as for GTCTCAAA, -0.0688. On to CCCTCGTC, for which the “PBM E-score” value is -0.121. In the case of CGTCCTGA, the “PBM E-score” value was -0.113. On to CTCAAAAC, for which the “PBM E-score” value was found to be 0.0347. Consider CGGGATGA, for which the “PBM E-score” value turned out to be 0.0495. As for CAGTTTAG, the figure is -0.152; as for CAAACCTC, -0.00399. For the sequence GGATGTAC, the “PBM E-score” value was 0.0601. AAGATTCT: the “PBM E-score” value is -0.106. To GTTCACGA belongs -0.00376; to CTCTACAG, -0.0861. For CAGTTCTA, the “PBM E-score” value is -0.127. Regarding ATGGCTAA, the “PBM E-score” value was -0.00592. As for ATAGCTAA, the figure is 0.0506; as for AAACGCGG, 0.122; as for CGTTAGTC, -0.00681. As for ATCTCCCG, the figure is -0.101; as for ACTAGGAA, -0.0988. As for ATCGAATC, the figure is 0.0936; as for GCAAATGC, -0.074. For the sequence CCGCCGAC, the “PBM E-score” value was -0.119.

With AATTAGGT, the “PBM E-score” value worked out at 0.0972.

In the case of CGGACGTA, the “PBM E-score” value is -0.0782. To AGCGACCA belongs 0.0223; to CTCTGAAA, 0.0783; to ATTAAGCC, 0.0793. As for CATCTATA, the “PBM E-score” value worked out at 0.184.
